In PubChem BioAssay AID493014 (National Center for Advancing Translational Sciences (NCATS), 2011):
About 170 (0.05%) of roughly 340,000 compounds were called active. The inconclusive results got no clear call from the source; some entries with a clear call stand among them for comparison. Calls follow the shape of the dose curve; as a rule, active = well fitted inhibition curve with a large enough effect in the signal ratio, with a control signal flat (not every such curve was filed as active); inconclusive = small, poorly fitted or top-dose-only effect, or effect the other way, or a change in a side signal; inactive = flat fitted curve, though single readings scatter; the % refers to the signal ratio. Where the call is inconclusive, the potency comes from a doubtful curve fit.

test: qHTS Assay to Find Inhibitors of Chronic Active B-Cell Receptor Signaling; details: ABC-DLBCL IkBa-CBG/CBR reporter, luminescence ratio (green luciferase fused to IkBa over red control in TMD8 lymphoma cells), 4 h; activity change, negative = inhibition: at 46.1 µM (top of the series);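 as to activity change, negative = inhibition: plate controls were basal doxycycline-induced cells for no effect and cells given 10 µM MG132 for full effect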
Method in brief: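 TMD8 ABC-DLBCL cells carrying doxycycline-inducible green luciferase fused to IkappaBalpha plus unfused red luciferase were exposed to compounds (up to 46 uM) for 4 hrs at 37C. Activity came from the overlap-corrected green/red luminescence ratio.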
Potency is read from the fitted curve at half-maximal effect.

| Structure (SMILES) | activity change, negative = inhibition | Potency |
| --- | --- | --- |
| C/C(=N\OC(=O)c1ccccc1)c1cc(-c2ccc(Cl)cc2)no1 | inconclusive: 7.43% | – |
| O=C(COC(=O)/C=C/c1cccc(C(F)(F)F)c1)NCc1ccc(F)cc1 | – | inconclusive: 0.00651 µM [falling, full curve, poor fit] |
| Cc1csc2nc(CNC(=O)C3CC=CCC3C(=O)O)cn12 (centres undefined) | inconclusive: 9.58% | – |
| CCOc1ccccc1NC(=O)CSc1nc2cc(O)ccc2c(=O)n1-c1ccc(OC)c(OC)c1 | – | inconclusive: 11.2 µM [falling, partial curve] |
| COc1ccc(NC(=O)CSc2cc(C)nc3c(-c4ccccc4)cnn23)cc1 | inactive: -0.464% | – |
| CSc1cccc(NC(=O)c2ccc(CN3CCc4ccccc4C3)cc2)c1 | inconclusive: -15.3% | – |
| CN(C)c1ccc(-c2nc3ccccn3c2/N=C/c2ccc(Br)cc2)cc1 | – | inconclusive: 29.1 µM [falling, partial curve, poor fit] |
| COc1cc2c(cc1OC)-c1c(OC)c(OC)cc3ccnc(c13)C2=O | inconclusive: 2.53% | – |
| CCN(C(=O)Nc1ccccc1OC)c1c(N)n(Cc2ccccc2)c(=O)[nH]c1=O | inconclusive: -8.76% | – |
| Cc1nnc(SCc2ccc(F)cc2)s1 | inconclusive: 1.37% | – |
| CCCCNC(=O)c1ccccc1NS(=O)(=O)c1ccc2c(c1)OCCO2 | inconclusive: 2.84% | – |
| NC(=O)COC(=O)c1ccc(-c2ccc(O)cc2)cc1 | – | inconclusive: 0.355 µM [rising, full curve] |
| COc1ccc(N(CC(=O)Nc2ccccc2F)S(=O)(=O)c2ccc(OC)c(OC)c2)cc1 | inconclusive: 1.18% | – |
| CCCCCc1nnc(NC(=O)C2=COCCO2)s1 | – | inconclusive: 20.6 µM [falling, single point] |
| CCN(CC)C(=O)CN(c1cccc(OC)c1)S(=O)(=O)c1ccc(C)cc1 | inconclusive: -4.39% | – |
| CSc1nc(-c2ccc(Cl)cc2)nc(N)c1C#N | inconclusive: 11.3% | – |
| COc1ccc(NC(=O)CN2c3cccc4cccc(c34)S2(=O)=O)c(OC)c1 | – | inconclusive: 16.4 µM [falling, partial curve] |
| O=C(Nc1ccccc1Cl)c1ccc2nccnc2c1 | – | inconclusive: 35.5 µM [falling, single point] |
| COC(CNC(=O)c1cccnc1)OC | inconclusive: 5.73% | – |
| O=C1c2ccccc2NC(c2ccc(-c3cccs3)o2)N1O (centres undefined) | – | inconclusive: 29.1 µM [falling, single point] |

| Structure (SMILES) | activity change, negative = inhibition | Potency |
| --- | --- | --- |
| NC(=O)Nc1ccc(C(=O)OCC(=O)Nc2ccc(Cl)cn2)cc1 | inconclusive: -1.31% | – |
| CC(C)n1c(O)c(N=NC(=O)C2COc3ccccc3O2)c2ccccc21 (centres undefined) | inconclusive: 11% | – |
| COC(C(=O)Nc1ccnn1C1CCN(Cc2ccc(Cl)s2)CC1)c1ccccc1 (centres undefined) | inactive: -1.31% | – |
| CN(C)S(=O)(=O)c1cccc(NC(=O)c2cc3c(=O)n4ccccc4nc3s2)c1 | inconclusive: 4.49% | – |
| CCN1C[C@@H]2[C@@H]3C(=O)N(C)C(=O)[C@@H]3[C@](Cc3ccccc3)(C(=O)OC)N2C1=NC1CCCCC1 | inactive: -4.88% | – |
| O=c1c2c3nc4ccccc4nc3n(CC3CCCO3)c2ncn1CCc1ccccc1 (centres undefined) | – | inconclusive: 2.91 µM [rising, partial curve] |
| CN(CC(=O)OCC(=O)Nc1ccccc1)S(=O)(=O)c1ccc(Cl)cc1 | inconclusive: 22.3% | – |
| Cc1cccc(NS(=O)(=O)c2ccc3c(c2)C(C)(C)C(=O)N3C)c1 | inactive: -16.2% | – |
| COC(=O)C1=C(C)N(Cc2ccccc2)C(=O)/C1=C\c1ccco1 | inconclusive: 11.9% | – |
| O=C(Cc1ccccc1)Nc1nc(-c2cccs2)cs1 | inconclusive: -7.59% | – |
| COCCOC(=O)c1c(C)oc2ccc(OC(=O)COc3c(F)c(F)c(F)c(F)c3F)cc12 | inconclusive: 15.7% | – |
| O=S(=O)(Nc1ccc2c(c1)OCCO2)c1cccc(F)c1 | inactive: -3.84% | – |
| C=C(C)CNC(=S)NNC(=O)CCn1c2ccc(Cl)cc2c2cc(Cl)ccc21 | – | inconclusive: 29.1 µM [rising, single point] |
| CCN(Cc1ccccc1)C(=O)CC1Oc2ccccc2NC1=O (centres undefined) | inconclusive: -6.67% | – |
| Cc1ccc(CNC(=O)CCc2nc(-c3cccs3)no2)cc1 | – | inconclusive: 16.4 µM [rising, partial curve, poor fit] |
| Cc1ccccc1C(=O)N1CCC(C(=O)N2CCCc3ccccc32)CC1 | inactive: -3.75% | – |
| O=C(CN1CCN(C(=O)c2ccco2)CC1)Nc1ccc(Br)cc1 | inconclusive: 0.712% | – |
| NC1=NC(=Nc2ccc(Cl)cc2)c2ccccc21 | – | inconclusive: 20.6 µM [falling, single point] |
| CC(C)(C)OC(=O)C[C@@H]1C/C=C\C[C@@H](CC(=O)N(CCO)Cc2ccccc2)C(=O)N[C@H](C(C)(C)C)COC1=O | inactive: -1.48% | – |

Exported with bars between the fields: entries from further up
Structure (SMILES) | activity change, negative = inhibition | Potency
NC(=O)Nc1ccc(C(=O)OCC(=O)Nc2ccc(Cl)cn2)cc1 | inconclusive: -1.31% | –
CN(CC(=O)OCC(=O)Nc1ccccc1)S(=O)(=O)c1ccc(Cl)cc1 | inconclusive: 22.3% | –
